In patent US20200323920A1:
Results are given in words; binding and its absence hold for the method and conditions named. Some entries that bind do so weakly or less than the wild type.

The chains behind the UniProt entries cited, without tags or fusion partners. Where a name states a change or a piece, a line headed by the entry shows the natural chain unless it says otherwise. A line that says so, or that is headed by a name, gives the form on record, which may keep a tag or linker.
recombinant human mesothelin (C-terminally containing 6-His) (manufactured by BioLegend, Inc.) (Q13421, form named): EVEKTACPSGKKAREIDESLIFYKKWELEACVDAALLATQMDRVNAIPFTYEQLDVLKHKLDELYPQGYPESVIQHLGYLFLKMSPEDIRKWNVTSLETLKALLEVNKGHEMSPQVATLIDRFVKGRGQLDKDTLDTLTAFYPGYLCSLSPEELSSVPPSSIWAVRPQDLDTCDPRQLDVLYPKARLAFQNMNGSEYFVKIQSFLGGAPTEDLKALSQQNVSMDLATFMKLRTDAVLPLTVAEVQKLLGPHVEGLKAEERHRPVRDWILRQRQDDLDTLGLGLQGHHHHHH

B1: anti-human mesothelin CAR having VL07(25)VH07 as the scFv region, on anti-human mesothelin CAR-IL-7/CCL19-expressing T cells (protein)
chain: QPVLTQSSSLSASPGASASLTCTLRSGINVGPYRIYWYQQKPGSPPQYLLNYKSDSDKQQGSGVPSRFSGSKDASANAGVLLISGLRSEDEADYYCMIWHSSAAVFGGGTQLTVLSSSADDAKKDAAKKDDAKKDDAKKDGQVQLQQSGPGLVTPSQTLSLTCAISGDSVSSNSATWNWIRQSPSRGLEWLGRTYYRSKWYNDYAVSVKSRMSINPDTSKNQFSLQLNSVTPEDTAVYYCARGMMTYYYGMDVWGQGTTVTVSSGILGSIYIWAPLAGTCGVLLLSLVITRSKRSRLLHSDYMNMTPRRPGPTRKHYQPYAPPRDFAAYRSRFSVVKRGRKKLLYIFKQPFMRPVQTTQEEDGCSCRFPEEEEGGCELRVKFSRSADAPAYQQGQNQLYNELNLGRREEYDVLDKRRGRDPEMGGKPRRKNPQEGLYNELQKDKMAEAYSEIGMKGERRRGKGHDGLYQGLSTATKDTYDALHMQALPPR
B2: anti-human mesothelin CAR having VL07(15)VH07 as the scFv region, on anti-human mesothelin CAR-IL-7/CCL19-expressing T cells (protein)
chain: QPVLTQSSSLSASPGASASLTCTLRSGINVGPYRIYWYQQKPGSPPQYLLNYKSDSDKQQGSGVPSRFSGSKDASANAGVLLISGLRSEDEADYYCMIWHSSAAVFGGGTQLTVLSGGGGSGGGGSGGGGSQVQLQQSGPGLVTPSQTLSLTCAISGDSVSSNSATWNWIRQSPSRGLEWLGRTYYRSKWYNDYAVSVKSRMSINPDTSKNQFSLQLNSVTPEDTAVYYCARGMMTYYYGMDVWGQGTTVTVSSGILGSIYIWAPLAGTCGVLLLSLVITRSKRSRLLHSDYMNMTPRRPGPTRKHYQPYAPPRDFAAYRSRFSVVKRGRKKLLYIFKQPFMRPVQTTQEEDGCSCRFPEEEEGGCELRVKFSRSADAPAYQQGQNQLYNELNLGRREEYDVLDKRRGRDPEMGGKPRRKNPQEGLYNELQKDKMAEAYSEIGMKGERRRGKGHDGLYQGLSTATKDTYDALHMQALPPR
B3: anti-human mesothelin CAR having VH07(15)VL07 (signal peptide T) as the scFv region, on anti-human mesothelin CAR-IL-7/CCL19-expressing T cells (protein)
chain: QVQLQQSGPGLVTPSQTLSLTCAISGDSVSSNSATWNWIRQSPSRGLEWLGRTYYRSKWYNDYAVSVKSRMSINPDTSKNQFSLQLNSVTPEDTAVYYCARGMMTYYYGMDVWGQGTTVTVSSGILGSGGGGSGGGGSGGGGSQPVLTQSSSLSASPGASASLTCTLRSGINVGPYRIYWYQQKPGSPPQYLLNYKSDSDKQQGSGVPSRFSGSKDASANAGVLLISGLRSEDEADYYCMIWHSSAAVFGGGTQLTVLSIYIWAPLAGTCGVLLLSLVITRSKRSRLLHSDYMNMTPRRPGPTRKHYQPYAPPRDFAAYRSRFSVVKRGRKKLLYIFKQPFMRPVQTTQEEDGCSCRFPEEEEGGCELRVKFSRSADAPAYQQGQNQLYNELNLGRREEYDVLDKRRGRDPEMGGKPRRKNPQEGLYNELQKDKMAEAYSEIGMKGERRRGKGHDGLYQGLSTATKDTYDALHMQALPPR
B4: anti-human mesothelin CAR having VH07(15)VL07 (signal peptide P) as the scFv region, on anti-human mesothelin CAR-IL-7/CCL19-expressing T cells (protein)
chain: B3 chain
B5: anti-human mesothelin CAR having VH36(15)VL36 as the scFv region, on anti-human mesothelin CAR-IL-7/CCL19-expressing T cells (protein)
chain: QVQLQQSGPGLVTPSQTLSLTCAISGDSVSSNSATWNWIRQSPSRGLEWLGRTYYRSKWYNDYAVSVKSRMSINPDTSKNQFSLQLNSVTPEDTAVYYCARGMMTYYYGMDVWGQGTTVTVSSGILLSGGGGSGGGGSGGGGSQPVLTQSSSLSASPGASASLTCTLRSGINVGPRIYWYQQKPGSPPQYLLNYKSDSDKQQGSGVPSRFSGSKDASANAGVLLISGLRSEDEADYYCMIWHSSAAVFGGGTQLTVLSIYIWAPLAGTCGVLLLSLVITRSKRSRLLHSDYMNMTPRRPGPTRKHYQPYAPPRDFAAYRSRFSVVKRGRKKLLYIFKQPFMRPVQTTQEEDGCSCRFPEEEEGGCELRVKFSRSADAPAYQQGQNQLYNELNLGRREEYDVLDKRRGRDPEMGGKPRRKNPQEGLYNELQKDKMAEAYSEIGMKGERRRGKGHDGLYQGLSTATKDTYDALHMQALPPR
B6: anti-human mesothelin CAR having VH07(25)VL07 as the scFv region, on anti-human mesothelin CAR-IL-7/CCL19-expressing T cells (protein)
chain: QVQLQQSGPGLVTPSQTLSLTCAISGDSVSSNSATWNWIRQSPSRGLEWLGRTYYRSKWYNDYAVSVKSRMSINPDTSKNQFSLQLNSVTPEDTAVYYCARGMMTYYYGMDVWGQGTTVTVSSGILGSSSADDAKKDAAKKDDAKKDDAKKDGQPVLTQSSSLSASPGASASLTCTLRSGINVGPYRIYWYQQKPGSPPQYLLNYKSDSDKQQGSGVPSRFSGSKDASANAGVLLISGLRSEDEADYYCMIWHSSAAVFGGGTQLTVLSIYIWAPLAGTCGVLLLSLVITRSKRSRLLHSDYMNMTPRRPGPTRKHYQPYAPPRDFAAYRSRFSVVKRGRKKLLYIFKQPFMRPVQTTQEEDGCSCRFPEEEEGGCELRVKFSRSADAPAYQQGQNQLYNELNLGRREEYDVLDKRRGRDPEMGGKPRRKNPQEGLYNELQKDKMAEAYSEIGMKGERRRGKGHDGLYQGLSTATKDTYDALHMQALPPR

What follows are binders tested against recombinant human mesothelin (C-terminally containing 6-His) (manufactured by BioLegend, Inc.) (human) (UniProt Q13421) (assay: flow cytometry; CAR T cells stained with recombinant human mesothelin-6-His and PE anti-6-His antibody).

binding, binds:
B1
B2
B3
B4
B5
B6
